This is one part of the list. The data scatter; read single values as rough.

Chains of the proteins cited; added tags and fusions are not shown. Lines headed by an entry give the natural chain unless they say otherwise; changes in a name come on top. Residues count along the entry.
UniProt Q96BY7: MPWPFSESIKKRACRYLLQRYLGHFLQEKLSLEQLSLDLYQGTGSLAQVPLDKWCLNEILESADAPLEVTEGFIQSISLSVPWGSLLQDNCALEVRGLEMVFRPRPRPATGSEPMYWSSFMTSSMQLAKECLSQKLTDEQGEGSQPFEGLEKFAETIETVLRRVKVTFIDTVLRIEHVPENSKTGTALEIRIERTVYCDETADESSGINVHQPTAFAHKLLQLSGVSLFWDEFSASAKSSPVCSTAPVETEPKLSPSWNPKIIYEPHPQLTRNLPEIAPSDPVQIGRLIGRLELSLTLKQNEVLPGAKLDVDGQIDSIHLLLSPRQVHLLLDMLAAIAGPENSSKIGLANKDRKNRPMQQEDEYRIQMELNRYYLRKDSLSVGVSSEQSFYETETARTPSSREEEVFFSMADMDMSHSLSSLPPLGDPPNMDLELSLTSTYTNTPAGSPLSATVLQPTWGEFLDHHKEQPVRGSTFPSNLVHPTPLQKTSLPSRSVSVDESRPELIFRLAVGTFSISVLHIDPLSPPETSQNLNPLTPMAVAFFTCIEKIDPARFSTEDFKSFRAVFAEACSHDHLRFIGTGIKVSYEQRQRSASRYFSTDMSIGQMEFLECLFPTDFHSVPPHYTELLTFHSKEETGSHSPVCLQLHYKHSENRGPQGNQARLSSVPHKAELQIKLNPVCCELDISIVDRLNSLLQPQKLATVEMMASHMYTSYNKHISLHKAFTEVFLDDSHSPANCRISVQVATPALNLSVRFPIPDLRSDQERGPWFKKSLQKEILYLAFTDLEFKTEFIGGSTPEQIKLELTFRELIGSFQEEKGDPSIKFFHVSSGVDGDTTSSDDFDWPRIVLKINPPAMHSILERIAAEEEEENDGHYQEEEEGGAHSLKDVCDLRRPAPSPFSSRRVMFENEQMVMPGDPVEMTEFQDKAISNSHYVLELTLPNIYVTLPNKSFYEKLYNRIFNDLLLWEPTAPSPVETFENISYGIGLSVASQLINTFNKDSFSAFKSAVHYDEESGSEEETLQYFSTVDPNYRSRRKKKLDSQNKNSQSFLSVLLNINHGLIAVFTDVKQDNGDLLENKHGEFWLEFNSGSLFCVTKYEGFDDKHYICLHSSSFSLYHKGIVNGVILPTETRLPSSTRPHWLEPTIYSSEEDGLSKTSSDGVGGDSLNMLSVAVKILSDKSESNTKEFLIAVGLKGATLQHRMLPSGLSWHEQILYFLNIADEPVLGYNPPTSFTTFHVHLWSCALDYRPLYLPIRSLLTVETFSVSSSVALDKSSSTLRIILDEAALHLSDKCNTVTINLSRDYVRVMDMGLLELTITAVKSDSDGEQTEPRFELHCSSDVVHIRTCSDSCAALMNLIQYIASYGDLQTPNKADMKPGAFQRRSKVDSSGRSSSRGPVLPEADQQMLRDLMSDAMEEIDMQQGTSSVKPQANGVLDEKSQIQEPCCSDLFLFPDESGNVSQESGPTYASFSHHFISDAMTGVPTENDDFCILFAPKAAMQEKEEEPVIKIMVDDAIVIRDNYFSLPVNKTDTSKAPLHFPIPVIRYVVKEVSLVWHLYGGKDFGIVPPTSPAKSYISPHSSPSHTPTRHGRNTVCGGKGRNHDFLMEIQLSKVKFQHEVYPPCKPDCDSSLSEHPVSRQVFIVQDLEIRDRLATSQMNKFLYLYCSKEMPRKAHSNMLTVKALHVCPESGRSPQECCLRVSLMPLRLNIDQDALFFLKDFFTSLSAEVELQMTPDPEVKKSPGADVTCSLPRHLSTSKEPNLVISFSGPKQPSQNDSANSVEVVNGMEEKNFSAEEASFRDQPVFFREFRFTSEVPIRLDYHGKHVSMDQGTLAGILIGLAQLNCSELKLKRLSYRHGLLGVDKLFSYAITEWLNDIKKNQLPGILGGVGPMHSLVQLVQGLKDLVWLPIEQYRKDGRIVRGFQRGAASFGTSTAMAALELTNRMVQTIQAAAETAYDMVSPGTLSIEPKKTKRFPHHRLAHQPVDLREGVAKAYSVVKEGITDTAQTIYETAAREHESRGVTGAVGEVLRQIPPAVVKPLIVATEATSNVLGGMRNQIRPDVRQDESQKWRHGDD
UniProt Q13315: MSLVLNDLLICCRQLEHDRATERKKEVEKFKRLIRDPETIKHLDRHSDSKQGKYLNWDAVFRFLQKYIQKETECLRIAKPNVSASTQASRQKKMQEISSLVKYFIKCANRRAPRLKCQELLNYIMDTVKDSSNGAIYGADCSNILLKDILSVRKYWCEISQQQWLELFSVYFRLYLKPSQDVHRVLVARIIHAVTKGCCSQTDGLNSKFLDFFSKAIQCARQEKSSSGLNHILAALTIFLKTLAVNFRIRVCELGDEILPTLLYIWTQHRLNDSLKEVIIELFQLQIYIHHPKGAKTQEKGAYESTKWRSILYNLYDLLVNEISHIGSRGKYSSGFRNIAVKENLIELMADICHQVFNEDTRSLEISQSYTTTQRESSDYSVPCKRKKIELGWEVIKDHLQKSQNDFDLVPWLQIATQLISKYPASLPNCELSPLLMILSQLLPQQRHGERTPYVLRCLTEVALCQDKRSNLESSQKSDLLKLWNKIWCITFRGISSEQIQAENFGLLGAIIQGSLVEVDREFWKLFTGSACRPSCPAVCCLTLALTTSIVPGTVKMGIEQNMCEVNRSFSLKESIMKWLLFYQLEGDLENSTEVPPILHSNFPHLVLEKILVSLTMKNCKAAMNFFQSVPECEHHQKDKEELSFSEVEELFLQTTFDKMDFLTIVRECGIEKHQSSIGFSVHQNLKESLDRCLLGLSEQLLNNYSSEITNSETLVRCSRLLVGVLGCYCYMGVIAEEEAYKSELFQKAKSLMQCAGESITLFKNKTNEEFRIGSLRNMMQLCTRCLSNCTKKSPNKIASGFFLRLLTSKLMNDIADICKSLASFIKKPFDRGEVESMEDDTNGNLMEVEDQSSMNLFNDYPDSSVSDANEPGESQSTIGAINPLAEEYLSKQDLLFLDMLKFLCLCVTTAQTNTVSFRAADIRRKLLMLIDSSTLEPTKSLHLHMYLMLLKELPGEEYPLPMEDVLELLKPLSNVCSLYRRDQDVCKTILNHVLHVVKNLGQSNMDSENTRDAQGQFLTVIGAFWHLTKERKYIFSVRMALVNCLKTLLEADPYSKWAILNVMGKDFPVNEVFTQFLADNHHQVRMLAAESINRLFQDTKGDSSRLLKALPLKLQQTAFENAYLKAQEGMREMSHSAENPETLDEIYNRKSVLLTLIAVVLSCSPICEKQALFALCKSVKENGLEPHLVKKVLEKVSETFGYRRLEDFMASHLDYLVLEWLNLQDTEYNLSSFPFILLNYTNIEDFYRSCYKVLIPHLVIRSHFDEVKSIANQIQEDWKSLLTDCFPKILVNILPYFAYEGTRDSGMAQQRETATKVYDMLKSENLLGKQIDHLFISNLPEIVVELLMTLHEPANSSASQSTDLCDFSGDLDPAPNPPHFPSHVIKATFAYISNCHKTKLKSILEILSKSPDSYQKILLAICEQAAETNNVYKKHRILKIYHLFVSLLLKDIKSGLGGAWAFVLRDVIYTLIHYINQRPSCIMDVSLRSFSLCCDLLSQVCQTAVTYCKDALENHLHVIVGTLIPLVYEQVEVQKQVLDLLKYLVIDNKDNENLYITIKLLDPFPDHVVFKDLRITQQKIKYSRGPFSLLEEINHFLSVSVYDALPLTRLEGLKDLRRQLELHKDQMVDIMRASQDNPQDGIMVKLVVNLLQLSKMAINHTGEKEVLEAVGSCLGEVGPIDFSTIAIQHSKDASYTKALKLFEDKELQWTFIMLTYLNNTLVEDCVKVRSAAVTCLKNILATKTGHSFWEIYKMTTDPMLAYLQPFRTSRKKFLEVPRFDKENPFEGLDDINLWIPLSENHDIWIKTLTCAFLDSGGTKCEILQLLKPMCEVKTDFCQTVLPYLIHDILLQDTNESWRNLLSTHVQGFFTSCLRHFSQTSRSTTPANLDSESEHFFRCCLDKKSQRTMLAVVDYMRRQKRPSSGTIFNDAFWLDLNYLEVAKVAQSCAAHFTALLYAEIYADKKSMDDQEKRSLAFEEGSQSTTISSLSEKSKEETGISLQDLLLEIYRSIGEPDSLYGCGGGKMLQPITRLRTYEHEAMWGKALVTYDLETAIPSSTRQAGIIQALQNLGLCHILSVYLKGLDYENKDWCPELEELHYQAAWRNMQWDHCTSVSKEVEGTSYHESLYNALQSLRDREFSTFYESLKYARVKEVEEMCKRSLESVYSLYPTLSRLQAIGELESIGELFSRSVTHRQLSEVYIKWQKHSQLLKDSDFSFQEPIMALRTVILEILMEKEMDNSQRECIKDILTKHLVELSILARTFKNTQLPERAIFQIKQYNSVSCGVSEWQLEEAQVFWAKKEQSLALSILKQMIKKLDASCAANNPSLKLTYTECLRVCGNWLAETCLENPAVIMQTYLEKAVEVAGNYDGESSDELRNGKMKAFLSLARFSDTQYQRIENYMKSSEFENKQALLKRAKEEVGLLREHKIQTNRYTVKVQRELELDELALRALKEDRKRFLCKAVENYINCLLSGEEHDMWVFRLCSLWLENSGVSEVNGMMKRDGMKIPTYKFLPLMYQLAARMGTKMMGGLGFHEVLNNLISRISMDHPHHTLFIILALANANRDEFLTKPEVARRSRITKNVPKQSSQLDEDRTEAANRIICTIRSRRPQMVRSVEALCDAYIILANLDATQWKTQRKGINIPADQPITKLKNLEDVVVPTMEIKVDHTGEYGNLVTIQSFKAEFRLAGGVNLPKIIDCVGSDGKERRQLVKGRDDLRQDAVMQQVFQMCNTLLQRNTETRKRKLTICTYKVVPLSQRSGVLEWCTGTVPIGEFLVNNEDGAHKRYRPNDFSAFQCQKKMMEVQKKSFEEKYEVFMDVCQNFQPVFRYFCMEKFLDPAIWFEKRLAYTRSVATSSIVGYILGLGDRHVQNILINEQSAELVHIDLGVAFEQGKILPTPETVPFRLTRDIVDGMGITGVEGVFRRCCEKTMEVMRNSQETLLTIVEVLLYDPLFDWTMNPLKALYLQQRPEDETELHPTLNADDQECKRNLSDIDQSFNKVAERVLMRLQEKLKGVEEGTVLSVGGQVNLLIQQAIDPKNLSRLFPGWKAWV
UniProt P38606, whole entry, looked up: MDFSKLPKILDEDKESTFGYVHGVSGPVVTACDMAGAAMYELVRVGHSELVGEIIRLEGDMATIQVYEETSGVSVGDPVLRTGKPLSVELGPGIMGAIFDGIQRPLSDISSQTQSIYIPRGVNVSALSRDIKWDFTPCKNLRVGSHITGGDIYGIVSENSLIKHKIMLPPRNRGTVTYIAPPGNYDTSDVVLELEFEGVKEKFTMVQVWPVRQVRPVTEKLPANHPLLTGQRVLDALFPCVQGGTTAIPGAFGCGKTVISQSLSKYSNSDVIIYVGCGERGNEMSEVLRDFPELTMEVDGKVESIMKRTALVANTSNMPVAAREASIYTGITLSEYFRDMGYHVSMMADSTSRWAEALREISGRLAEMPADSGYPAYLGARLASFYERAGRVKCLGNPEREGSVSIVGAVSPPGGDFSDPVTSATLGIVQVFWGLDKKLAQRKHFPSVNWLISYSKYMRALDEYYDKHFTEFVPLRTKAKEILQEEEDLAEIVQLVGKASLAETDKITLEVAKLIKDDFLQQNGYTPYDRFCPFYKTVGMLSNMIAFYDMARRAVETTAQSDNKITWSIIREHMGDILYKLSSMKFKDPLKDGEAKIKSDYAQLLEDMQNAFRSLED
UniProt Q2TAZ0, 1260-1281: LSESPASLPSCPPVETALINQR
UniProt O95352: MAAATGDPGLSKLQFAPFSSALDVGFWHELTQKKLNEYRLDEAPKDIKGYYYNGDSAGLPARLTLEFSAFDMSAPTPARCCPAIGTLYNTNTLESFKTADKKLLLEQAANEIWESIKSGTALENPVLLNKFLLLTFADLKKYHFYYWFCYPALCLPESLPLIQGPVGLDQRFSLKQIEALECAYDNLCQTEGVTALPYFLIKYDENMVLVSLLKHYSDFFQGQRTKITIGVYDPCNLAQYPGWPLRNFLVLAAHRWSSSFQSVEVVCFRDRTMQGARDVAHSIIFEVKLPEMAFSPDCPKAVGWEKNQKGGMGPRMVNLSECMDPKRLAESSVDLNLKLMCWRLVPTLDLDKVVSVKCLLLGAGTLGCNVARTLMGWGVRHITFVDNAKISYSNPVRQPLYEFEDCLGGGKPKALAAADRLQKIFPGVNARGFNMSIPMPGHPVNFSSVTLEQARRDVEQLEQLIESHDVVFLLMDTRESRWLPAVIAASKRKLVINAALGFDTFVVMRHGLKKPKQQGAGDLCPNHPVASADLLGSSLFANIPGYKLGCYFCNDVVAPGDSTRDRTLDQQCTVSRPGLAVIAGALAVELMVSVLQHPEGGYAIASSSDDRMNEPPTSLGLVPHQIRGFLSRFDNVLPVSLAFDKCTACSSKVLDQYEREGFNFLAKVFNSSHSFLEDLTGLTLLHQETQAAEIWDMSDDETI

This is an account of results in the supplement of paper PMC11732987, “Enantioselective OTUD7B fragment discovery through chemoproteomics screening and high-throughput optimisation” (Communications Chemistry, 2025).

Compound in the first experiment: ClCC(=O)N[C@H]1CCCc2ccccc12
Briefly: log2 mean competition ratio of IA-DTB cysteine labelling (DMSO/compound) (log2 ratio); higher = stronger cysteine engagement by compound. Particulars: 50 µM; treatment time: 4 h; cell line lysate: HEK293T. On the procedure:
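IA-DTB competitive cysteine chemoproteomics in HEK293T RIPA lysate. Lysates were treated with compound 29 or 30 at 50 or 200 µM for 4 h, then IA-DTB (500 µM, 1 h), trypsin-digested, NeutrAvidin-enriched and analysed by diaPASEF. Competition ratio = intensity DMSO / intensity compound (n=4 treated, n=64 DMSO); binding: mean log2 CR ≥ 1 and p ≤ 0.05 plus QC filters. Target is the cysteine site.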
Consider ATP6V0A1 C247 (UniProt Q93050), for which the “log2 mean competition ratio” value came out at 0.232.
As to ATP7A C160 (UniProt Q04656), the “log2 mean competition ratio” value was -0.609.
Turning to ATG2B C1688 (UniProt Q96BY7), the “log2 mean competition ratio” value is -0.242.
Take ATG2B C243 (UniProt Q96BY7): the “log2 mean competition ratio” value is -0.289.
Turning to ATM C2323 (UniProt Q13315), the “log2 mean competition ratio” value was found to be 0.0423.
On the same count and under the same terms, with BAZ1A C404 (UniProt Q9NRL2) the figure was -0.784.
For the target BCAR3 C261 (UniProt O75815), the “log2 mean competition ratio” value is -0.0227.
Consider ASPM C95 (UniProt Q8IZT6), for which the “log2 mean competition ratio” value was -0.203.
Take ATP6V1A C277 (UniProt P38606): the “log2 mean competition ratio” value is 0.177.
On to ATG2A C1270 (UniProt Q2TAZ0), for which the “log2 mean competition ratio” value was -0.372.
In the case of BCKDHB C299 (UniProt P21953), the “log2 mean competition ratio” value is -0.541.
For ATG7 C322 (UniProt O95352), the “log2 mean competition ratio” value was -0.221.
For the target ATP6V1A C138 (UniProt P38606), the “log2 mean competition ratio” value is 0.212.
For the target BBX C874 (UniProt Q8WY36), the “log2 mean competition ratio” value is -0.104.
Turning to ATP6V0A2 C680 (UniProt Q9Y487), the “log2 mean competition ratio” value was determined as 0.0203.
The same measure, in the same setting: the result for ATP6V1C1 C376 (UniProt P21283) reads -0.476; that for BDP1 C689 (UniProt A6H8Y1), 0.414.
Turning to ATP2B4 C537 (UniProt P23634), the “log2 mean competition ratio” value is -0.0503.
The same measure, in the same setting: with ATM C633 (UniProt Q13315) the figure was 0.094; with ATL2 C441 (UniProt Q8NHH9), -0.225.

The experiment is the same for the next values; noted with them: 200 µM; treatment time: 4 h; cell line lysate: HEK293T.
Consider ATP6V0A1 C247 (UniProt Q93050), for which the “log2 mean competition ratio” value is -0.169.
Still for that read-out and setting: with ATP7A C160 (UniProt Q04656) the figure was -0.111; with ATG2B C1688 (UniProt Q96BY7), -0.294.
ATG2B C243 (UniProt Q96BY7): the “log2 mean competition ratio” value came out at 0.0152.
Turning to ATM C2323 (UniProt Q13315), the “log2 mean competition ratio” value is -0.18.
On the same count and under the same terms, the result for BAZ1A C404 (UniProt Q9NRL2) reads 0.0227.
As to BCAR3 C261 (UniProt O75815), the “log2 mean competition ratio” value worked out at 0.116.
Consider ASPM C95 (UniProt Q8IZT6), for which the “log2 mean competition ratio” value amounted to 0.117.
Consider ATP6V1A C277 (UniProt P38606), for which the “log2 mean competition ratio” value was -0.197.
The same measure, in the same setting: the result for ATG2A C1270 (UniProt Q2TAZ0) reads 0.2; that for BCKDHB C299 (UniProt P21953), -0.0724; that for ATG7 C322 (UniProt O95352), 0.0979.
For the target ATP6V1A C138 (UniProt P38606), the “log2 mean competition ratio” value is 0.893.
As for BBX C874 (UniProt Q8WY36), the “log2 mean competition ratio” value turned out to be 0.0772.
ATP6V0A2 C680 (UniProt Q9Y487): the “log2 mean competition ratio” value is 0.0499.
Consider ATP6V1C1 C376 (UniProt P21283), for which the “log2 mean competition ratio” value was 0.0851.
Same read-out and setting: with BDP1 C689 (UniProt A6H8Y1) the figure was 0.0533.
Regarding ATP2B4 C537 (UniProt P23634), the “log2 mean competition ratio” value was -0.183.
On to ATM C633 (UniProt Q13315), for which the “log2 mean competition ratio” value is -0.349.
On to ATL2 C441 (UniProt Q8NHH9), for which the “log2 mean competition ratio” value was found to be 0.243.
